Laboratory results published in PubChem BioAssay AID1487 (National Center for Advancing Translational Sciences (NCATS), 2009).
This is one part of the list. The main result of the screen is listed elsewhere. These columns were measured beside it and carry no call. The list favours compounds with an active or inconclusive main result. Words in brackets tell the shape of the fitted curve; partial curves, single points and poor fits give uncertain potencies.

Experiment: qHTS Assay for Modulators of Lamin A Splicing
Details: HeLa LMNA splicing GFP/RFP minigene ratio, 48 h
Outline: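 S3 HeLa cells stably expressing lamin A-EGFP splicing minigene plus DsRed2, 600 cells/well, 48 h compound exposure at 37C. Laser-scanning cytometry; analysed as GFP (500-530 nm)/RFP (575-640 nm) total intensity ratio; 0.5% DMSO vehicle.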

[1] = measured here: GFP splicing reporter channel
[2] = measured here: RFP viability control channel

Compound	AC50 [1]	AC50 [2]
CCOC(=O)Cn1c(=O)n(-c2ccccc2OC)c2nc(-c3ccc(C(C)C)cc3)nc(C(N)=O)c21	14.1 µM [falling, partial curve, poor fit]	10 µM [falling, partial curve, poor fit]
O=C(CN1CCCCC1)Nc1nnc(-c2ccc([N+](=O)[O-])cc2)s1	1.26 µM [falling, full curve]	1.12 µM [falling, full curve]
CN1C(=O)CC(N2CCN(C(=O)CN3CCCC3)CC2)C1=O (stereo not drawn)	35.5 µM [falling, single point]	35.5 µM [falling, single point]
COc1ccccc1-n1cnc2c(c1=O)c1nc3ccccc3nc1n2-c1ccc(C)cc1	8.91 µM [rising, partial curve, poor fit]	–
Cc1cccc(-c2nc(CSCC(=O)NCc3cccs3)c(C)o2)c1	–	15.8 µM [rising, single point]
COCCNC(=O)/C(C#N)=C/C(C)=C/c1ccccc1	1.41 µM [rising, partial curve]	2.24 µM [rising, single point]
CC(=O)[C@H]1CC[C@@H]2[C@H]3CC=C4C[C@@H](O)CC[C@]4(C)[C@H]3CC[C@]12C	3.16 µM [falling, single point]	2 µM [falling, full curve]
O=S(=O)(c1cccc(NC(=S)N2CCN(c3ccc(F)cc3)CC2)c1)C(F)F	–	10 µM [rising, partial curve, poor fit]
O=C(Oc1ccccc1C(=O)Nc1ccccc1)c1ccc(Br)c([N+](=O)[O-])c1	15.8 µM [rising, partial curve, poor fit]	14.1 µM [rising, single point]
Cc1nc2ccn(Cc3ccco3)c(=O)c2cc1C(=O)NCc1ccc(F)cc1	1.41 µM [rising, full curve]	1 µM [rising, full curve]
Cc1c(Cl)cccc1-n1ncc(C(=O)N2CCOCC2)c1C1CCN(C(=O)OC(C)(C)C)CC1	0.282 µM [rising, full curve, poor fit]	–
O=C(NC(=S)N1CCN(C/C=C/c2ccccc2)CC1)c1ccco1	11.2 µM [rising, partial curve, poor fit]	–
Cc1ccc(OCC(=O)OCc2cc(=O)n3nc(C4CC4)sc3n2)cc1	–	12.6 µM [falling, partial curve]
CCOc1ncccc1C(=O)NCc1ccc(OC)cc1	–	12.6 µM [rising, single point]
Cc1ccc(-n2nc(C)c(Sc3ccccc3[N+](=O)[O-])c2N)cc1	14.1 µM [rising, single point]	35.5 µM [rising, single point]
COc1ccc(C(=O)NC(c2ccc(Cl)cc2)c2cc(Cl)c3cccnc3c2O)cc1 (stereo not drawn)	1.41 µM [falling, full curve, poor fit]	1 µM [falling, full curve, poor fit]
COc1ccc(N2CC(O)=C(c3nc(-c4ccc(F)cc4)cs3)C2=N)cc1Cl	–	3.55 µM [rising, partial curve, poor fit]
N=c1c2c(n(Cc3cccc(Cl)c3)c3c1CCC3)CCCC2	2.82 µM [rising, single point]	2.51 µM [rising, partial curve]
Cc1ccccc1NC(=O)CSc1nc2cc3c(cc2cc1C)CCC3	7.94 µM [falling, partial curve]	8.91 µM [falling, partial curve]
CCCCCCCCS(=O)CCC(=O)O (stereo not drawn)	–	0.562 µM [falling, full curve]
COc1cc(Cl)c(C)cc1NC(=O)c1cnc(N2CCOCC2)c2ccccc12	–	14.1 µM [rising, single point]
CC(=O)c1ccc(NC(=O)C2Cc3ccccc3CN2C(=O)c2ccccc2)cc1 (stereo not drawn)	–	0.00447 µM [rising, full curve, poor fit]
O=C(C1CCC(CNc2nc(=S)[nH]c3ccccc23)CC1)N1CCN(c2ccccn2)CC1 (stereo not drawn)	0.501 µM [rising, partial curve]	14.1 µM [rising, partial curve]
CCOc1ccc(NC(=O)c2ccc(F)c(S(=O)(=O)N3CCN(c4ccccn4)CC3)c2)cc1	4.47 µM [rising, full curve, poor fit]	6.31 µM [rising, full curve]
O=S(=O)(Nc1nc2ccccc2nc1N1CCN(c2ccccc2)CC1)c1ccc(F)cc1	20 µM [rising, single point]	35.5 µM [rising, single point]
Cc1ccc(-c2noc(CSc3nnc(Cc4cccs4)n3-c3ccccc3)n2)cc1	3.16 µM [rising, partial curve, poor fit]	15.8 µM [rising, partial curve, poor fit]
COc1ccc(C(=O)NC2(C(F)(F)F)NC(=O)N(CCCc3ccccc3)C2=O)c(OC)c1OC (stereo not drawn)	10 µM [rising, partial curve, poor fit]	20 µM [rising, partial curve]

Grouped by structure: the entries above containing a thiophene ring, fused or not.
Compound	AC50 [1]	AC50 [2]
Cc1cccc(-c2nc(CSCC(=O)NCc3cccs3)c(C)o2)c1	–	15.8 µM [rising, single point]
Cc1ccc(-c2noc(CSc3nnc(Cc4cccs4)n3-c3ccccc3)n2)cc1	3.16 µM [rising, partial curve, poor fit]	15.8 µM [rising, partial curve, poor fit]

Next records

Compound	AC50 [1]	AC50 [2]
O=C(Nc1ccc(Cl)cc1)N1CCC(c2ccccc2)C1 (stereo not drawn)	–	35.5 µM [falling, single point]
Oc1ccc(/C=N/Nc2nc(N3CCCC3)nc(N3CCCC3)n2)cc1O	31.6 µM [falling, single point]	31.6 µM [falling, single point]
CCOc1ccccc1NC(=O)c1c(NCc2sccc2C)sc2c1CCC(C)C2 (stereo not drawn)	20 µM [falling, single point]	–
Cc1cc(C(=O)N2CCN(c3cccc(Cl)c3)CC2)c(C)o1	–	5.62 µM [rising, single point]
N#Cc1sc2nc3c(c(-c4ccco4)c2c1N)CCCC3	12.6 µM [rising, single point]	–
O=C(CNC(=S)N(Cc1ccccc1F)C1CCCCC1)NCCCN1CCOCC1	3.98 µM [falling, single point]	–
CN(C)c1nc(N(C)C)nc(N(C#N)CCOc2ccccc2)n1	–	17.8 µM [rising, single point]
c1ccc2c(c1)OCCOCCOCCOCCOc1ccccc1OCCOCCOCCO2	0.224 µM [rising, full curve, poor fit]	0.282 µM [rising, full curve]
Cc1ccc2[nH]c(SCC(=O)N3CCOCC3)nc2c1C	14.1 µM [falling, single point]	–
O=C1C(=C(O)c2ccccc2)C(=O)c2ccccc21	14.1 µM [falling, partial curve, poor fit]	17.8 µM [falling, partial curve]
COc1cccc(/C=N/NC(=O)c2cc3cc([N+](=O)[O-])ccc3s2)c1O	35.5 µM [falling, single point]	0.447 µM [rising, full curve]
COc1ccc(NC(=S)Nc2cccc(Cl)c2Cl)cc1OC	–	15.8 µM [rising, single point]
O=C(NC(=S)Nc1ncc(Br)cc1Br)c1cncc(Br)c1	5.01 µM [rising, partial curve, poor fit]	15.8 µM [rising, single point]
CCN1CCN(C(=O)c2cc3c(s2)-c2ccccc2S(=O)(=O)C3)CC1	–	1.41 µM [rising, partial curve]
Cc1nnc(SCc2cccc(CSc3nnc(C)s3)c2)s1	–	35.5 µM [rising, single point]
Cc1ccc(C)c(NS(=O)(=O)c2cc(C(=O)NCCSC3CCCCC3)ccc2C)c1	35.5 µM [falling, single point]	20 µM [falling, single point]
COc1cc(OC)cc(C(=O)N2CCC(N3CCN(c4ccccc4OC)CC3)CC2)c1	22.4 µM [rising, single point]	–
Cc1ccc(-c2ccc(/C=C/C(=O)c3ccccc3)o2)cc1	–	20 µM [rising, partial curve, poor fit]
CC(C)(C)C1CCC2(CC1)C(C#N)=C(SCC(=O)Nc1ccccc1)NC(=O)C2C#N (stereo not drawn)	–	2.51 µM [rising, full curve]
Cn1c(N)c(N=Nc2ccc(S(N)(=O)=O)cc2)c(=O)n(C)c1=O	35.5 µM [rising, single point]	–
Cn1nnc2c(N3CCCCC3)nccc21	17.8 µM [rising, single point]	5.62 µM [rising, single point]
O=C(CNC(=S)NC(=O)c1ccc(F)cc1)c1ccccc1	–	25.1 µM [falling, partial curve, poor fit]
COc1cc(NC(=O)CN2CCCCC2C)c(C)cc1[N+](=O)[O-] (stereo not drawn)	12.6 µM [rising, partial curve]	4.47 µM [rising, partial curve]
Cc1nnc2n(Cc3ccccc3)c(=O)c3c4c(sc3n12)COC(C(C)C)C4 (stereo not drawn)	–	0.794 µM [falling, full curve]
Cc1cc(C)nc(N2CCCC(CCC(=O)NCc3ccc(F)c(F)c3)C2)n1 (stereo not drawn)	25.1 µM [falling, partial curve]	35.5 µM [falling, single point]
CN(C)c1nc(SCCOC(=O)Nc2ccccc2)nc(N(C)C)n1	–	25.1 µM [rising, single point]
